The list shows a part of the results.
Columns and labels:
Test in all cases: log2 fold change, soluble protein after heating vs DMSO (PISA); higher = thermal stabilisation; K562 lysate, 10 uM; active = over 0.2 and 3.5 SD of the protein, either way, in both replicates (recomputed)
ibrutinib = compound: C=CC(=O)N1CCC[C@@H](n2nc(-c3ccc(Oc4ccccc4)cc3)c3c(N)ncnc32)C1 [ibrutinib]
Outline: (§1)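 Soluble protein was defined as the supernatant remaining after 21,000xg for 90 min, following pooling of heated aliquots and adjustment to 0.5% NP-40 at 4°C. Before that, crude K562 extract at 1 mg/mL protein in PBS pH 7.4 with 1 mM MgCl2 was treated with 10 μM compound for 30 min and heated for 3 min across 48°C-58°C. Quantification used TMTpro 16plex LC-MS/MS with channel sums equalised, and values are log-two fold changes in thermal stability relative to solvent controls from duplicates.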

Amino acid sequences for entries named in this document (tags omitted). A change or cut given only in a name is not applied to a line headed by its entry.
UniProt P41236: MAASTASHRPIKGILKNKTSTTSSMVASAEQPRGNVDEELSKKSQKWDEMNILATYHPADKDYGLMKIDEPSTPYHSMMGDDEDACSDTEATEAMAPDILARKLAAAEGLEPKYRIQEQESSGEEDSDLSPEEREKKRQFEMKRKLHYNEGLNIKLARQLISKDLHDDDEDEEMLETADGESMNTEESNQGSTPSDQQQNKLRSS
UniProt Q9H2H8: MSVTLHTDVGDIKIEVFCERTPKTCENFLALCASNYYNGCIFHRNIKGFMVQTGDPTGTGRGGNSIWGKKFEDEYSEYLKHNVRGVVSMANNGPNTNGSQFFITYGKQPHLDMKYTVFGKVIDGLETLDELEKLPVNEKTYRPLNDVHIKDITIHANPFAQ
UniProt Q6NYC8: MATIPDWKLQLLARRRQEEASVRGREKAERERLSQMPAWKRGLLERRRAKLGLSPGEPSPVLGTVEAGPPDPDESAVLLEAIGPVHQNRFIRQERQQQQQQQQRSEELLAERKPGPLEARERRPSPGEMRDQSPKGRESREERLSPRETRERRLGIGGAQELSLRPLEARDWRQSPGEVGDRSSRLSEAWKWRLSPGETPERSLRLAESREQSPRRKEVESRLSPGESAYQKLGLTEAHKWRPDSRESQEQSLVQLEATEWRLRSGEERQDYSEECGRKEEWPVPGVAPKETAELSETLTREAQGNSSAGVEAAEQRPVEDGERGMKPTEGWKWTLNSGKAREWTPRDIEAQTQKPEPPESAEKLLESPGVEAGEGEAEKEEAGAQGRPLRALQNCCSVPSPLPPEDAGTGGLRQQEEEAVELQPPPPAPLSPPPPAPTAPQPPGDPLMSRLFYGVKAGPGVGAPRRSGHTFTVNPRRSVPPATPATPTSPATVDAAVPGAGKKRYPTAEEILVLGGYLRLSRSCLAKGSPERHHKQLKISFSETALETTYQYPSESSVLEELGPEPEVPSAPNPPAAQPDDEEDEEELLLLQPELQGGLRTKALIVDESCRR
UniProt O94806: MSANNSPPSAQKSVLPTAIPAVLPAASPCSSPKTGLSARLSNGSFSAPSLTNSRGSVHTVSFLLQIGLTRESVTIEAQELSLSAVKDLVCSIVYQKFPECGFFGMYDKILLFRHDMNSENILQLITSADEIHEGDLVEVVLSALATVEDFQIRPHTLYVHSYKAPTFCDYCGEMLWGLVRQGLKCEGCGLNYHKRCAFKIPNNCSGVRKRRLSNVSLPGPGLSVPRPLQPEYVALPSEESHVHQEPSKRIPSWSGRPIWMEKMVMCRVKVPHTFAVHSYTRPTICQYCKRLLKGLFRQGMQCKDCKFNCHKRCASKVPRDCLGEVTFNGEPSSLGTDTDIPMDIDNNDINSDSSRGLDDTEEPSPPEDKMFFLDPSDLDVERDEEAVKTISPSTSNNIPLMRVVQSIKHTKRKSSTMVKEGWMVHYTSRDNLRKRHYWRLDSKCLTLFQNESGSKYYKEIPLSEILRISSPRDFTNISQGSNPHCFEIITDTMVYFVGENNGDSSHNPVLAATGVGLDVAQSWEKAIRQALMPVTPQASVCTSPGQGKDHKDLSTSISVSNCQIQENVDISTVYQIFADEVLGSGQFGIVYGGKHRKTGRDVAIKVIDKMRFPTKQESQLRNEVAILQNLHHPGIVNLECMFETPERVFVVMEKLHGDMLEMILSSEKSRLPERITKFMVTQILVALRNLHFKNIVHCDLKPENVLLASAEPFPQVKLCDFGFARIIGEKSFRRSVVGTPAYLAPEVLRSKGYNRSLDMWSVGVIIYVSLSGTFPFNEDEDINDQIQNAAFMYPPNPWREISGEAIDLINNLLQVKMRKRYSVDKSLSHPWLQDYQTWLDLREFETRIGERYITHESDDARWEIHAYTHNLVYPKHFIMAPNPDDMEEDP
UniProt Q13131: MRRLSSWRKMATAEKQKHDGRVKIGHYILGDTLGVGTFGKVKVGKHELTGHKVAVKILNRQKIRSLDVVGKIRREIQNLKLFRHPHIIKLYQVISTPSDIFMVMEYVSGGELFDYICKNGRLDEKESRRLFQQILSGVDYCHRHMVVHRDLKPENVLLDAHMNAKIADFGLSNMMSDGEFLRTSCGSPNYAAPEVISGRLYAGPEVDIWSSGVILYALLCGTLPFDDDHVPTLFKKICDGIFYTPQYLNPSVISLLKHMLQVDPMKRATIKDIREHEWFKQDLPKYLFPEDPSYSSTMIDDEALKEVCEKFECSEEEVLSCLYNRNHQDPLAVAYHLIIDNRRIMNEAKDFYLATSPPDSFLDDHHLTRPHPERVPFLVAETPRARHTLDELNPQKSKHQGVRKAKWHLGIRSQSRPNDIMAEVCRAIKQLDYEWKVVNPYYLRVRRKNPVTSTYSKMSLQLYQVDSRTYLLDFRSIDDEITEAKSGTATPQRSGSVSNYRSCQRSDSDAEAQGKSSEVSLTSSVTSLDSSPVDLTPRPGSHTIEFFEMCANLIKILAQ
UniProt Q15173: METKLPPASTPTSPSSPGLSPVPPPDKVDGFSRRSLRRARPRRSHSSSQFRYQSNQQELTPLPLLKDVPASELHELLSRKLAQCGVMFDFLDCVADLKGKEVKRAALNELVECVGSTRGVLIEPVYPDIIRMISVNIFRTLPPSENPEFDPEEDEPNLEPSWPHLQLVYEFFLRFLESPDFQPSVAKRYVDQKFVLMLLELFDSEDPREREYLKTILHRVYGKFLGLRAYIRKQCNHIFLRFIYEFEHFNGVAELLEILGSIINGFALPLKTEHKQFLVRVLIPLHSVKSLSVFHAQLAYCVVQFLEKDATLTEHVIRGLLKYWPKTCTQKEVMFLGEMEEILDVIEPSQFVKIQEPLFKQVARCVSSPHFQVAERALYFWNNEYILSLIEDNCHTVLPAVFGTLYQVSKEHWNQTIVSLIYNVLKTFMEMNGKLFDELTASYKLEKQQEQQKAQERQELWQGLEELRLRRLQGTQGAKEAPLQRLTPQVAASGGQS
UniProt P57071, whole entry, looked up: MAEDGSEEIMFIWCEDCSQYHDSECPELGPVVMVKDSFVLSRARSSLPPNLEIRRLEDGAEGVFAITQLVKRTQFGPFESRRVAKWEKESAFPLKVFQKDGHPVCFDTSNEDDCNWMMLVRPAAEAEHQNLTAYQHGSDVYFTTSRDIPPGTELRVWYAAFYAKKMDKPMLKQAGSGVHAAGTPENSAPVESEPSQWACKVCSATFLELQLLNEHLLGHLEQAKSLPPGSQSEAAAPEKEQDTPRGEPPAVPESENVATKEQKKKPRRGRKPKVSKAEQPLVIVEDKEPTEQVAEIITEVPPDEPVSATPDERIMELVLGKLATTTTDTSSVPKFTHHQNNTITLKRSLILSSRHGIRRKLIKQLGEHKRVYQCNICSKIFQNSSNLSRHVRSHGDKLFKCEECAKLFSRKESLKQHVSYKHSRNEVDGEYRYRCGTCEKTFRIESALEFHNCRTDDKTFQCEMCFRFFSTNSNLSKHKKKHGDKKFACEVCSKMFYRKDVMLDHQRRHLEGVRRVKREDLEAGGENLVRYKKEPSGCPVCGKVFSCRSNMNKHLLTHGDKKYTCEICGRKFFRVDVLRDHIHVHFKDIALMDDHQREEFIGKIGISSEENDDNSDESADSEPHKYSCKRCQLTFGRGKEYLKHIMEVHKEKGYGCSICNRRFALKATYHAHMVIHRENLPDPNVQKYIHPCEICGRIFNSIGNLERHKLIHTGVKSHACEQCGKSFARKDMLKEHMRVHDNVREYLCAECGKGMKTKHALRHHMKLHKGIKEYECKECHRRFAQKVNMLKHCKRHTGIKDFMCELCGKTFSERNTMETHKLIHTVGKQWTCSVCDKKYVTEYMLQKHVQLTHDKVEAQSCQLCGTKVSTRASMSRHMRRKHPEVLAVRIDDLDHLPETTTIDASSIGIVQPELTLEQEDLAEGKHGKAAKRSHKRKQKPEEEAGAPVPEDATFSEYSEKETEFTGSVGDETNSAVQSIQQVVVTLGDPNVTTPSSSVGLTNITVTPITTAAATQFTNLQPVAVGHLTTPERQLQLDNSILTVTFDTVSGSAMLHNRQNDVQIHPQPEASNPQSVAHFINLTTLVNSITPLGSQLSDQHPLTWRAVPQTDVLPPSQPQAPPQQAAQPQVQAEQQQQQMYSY
UniProt P13727: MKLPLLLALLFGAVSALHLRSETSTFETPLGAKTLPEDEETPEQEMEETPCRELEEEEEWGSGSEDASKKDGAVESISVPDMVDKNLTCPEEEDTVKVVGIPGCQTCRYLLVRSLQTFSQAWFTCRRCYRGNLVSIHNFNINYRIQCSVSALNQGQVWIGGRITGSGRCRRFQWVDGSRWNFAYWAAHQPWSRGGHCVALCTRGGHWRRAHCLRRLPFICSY
UniProt Q96LW4: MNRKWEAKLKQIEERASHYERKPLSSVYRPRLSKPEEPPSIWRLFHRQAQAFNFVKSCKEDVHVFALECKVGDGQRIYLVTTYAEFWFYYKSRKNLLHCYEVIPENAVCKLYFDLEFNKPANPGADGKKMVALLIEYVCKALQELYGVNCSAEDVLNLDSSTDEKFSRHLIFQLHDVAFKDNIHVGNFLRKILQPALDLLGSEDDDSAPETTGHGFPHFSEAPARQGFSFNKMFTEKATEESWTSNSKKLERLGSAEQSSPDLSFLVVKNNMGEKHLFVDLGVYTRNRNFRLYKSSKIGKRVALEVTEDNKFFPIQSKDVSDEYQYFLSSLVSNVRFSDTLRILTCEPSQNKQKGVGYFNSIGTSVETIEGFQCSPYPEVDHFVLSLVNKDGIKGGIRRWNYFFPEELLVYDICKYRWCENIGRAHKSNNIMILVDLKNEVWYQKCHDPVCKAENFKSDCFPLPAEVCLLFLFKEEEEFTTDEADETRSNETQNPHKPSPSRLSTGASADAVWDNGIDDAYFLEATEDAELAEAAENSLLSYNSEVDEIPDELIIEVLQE
UniProt Q9BZL4: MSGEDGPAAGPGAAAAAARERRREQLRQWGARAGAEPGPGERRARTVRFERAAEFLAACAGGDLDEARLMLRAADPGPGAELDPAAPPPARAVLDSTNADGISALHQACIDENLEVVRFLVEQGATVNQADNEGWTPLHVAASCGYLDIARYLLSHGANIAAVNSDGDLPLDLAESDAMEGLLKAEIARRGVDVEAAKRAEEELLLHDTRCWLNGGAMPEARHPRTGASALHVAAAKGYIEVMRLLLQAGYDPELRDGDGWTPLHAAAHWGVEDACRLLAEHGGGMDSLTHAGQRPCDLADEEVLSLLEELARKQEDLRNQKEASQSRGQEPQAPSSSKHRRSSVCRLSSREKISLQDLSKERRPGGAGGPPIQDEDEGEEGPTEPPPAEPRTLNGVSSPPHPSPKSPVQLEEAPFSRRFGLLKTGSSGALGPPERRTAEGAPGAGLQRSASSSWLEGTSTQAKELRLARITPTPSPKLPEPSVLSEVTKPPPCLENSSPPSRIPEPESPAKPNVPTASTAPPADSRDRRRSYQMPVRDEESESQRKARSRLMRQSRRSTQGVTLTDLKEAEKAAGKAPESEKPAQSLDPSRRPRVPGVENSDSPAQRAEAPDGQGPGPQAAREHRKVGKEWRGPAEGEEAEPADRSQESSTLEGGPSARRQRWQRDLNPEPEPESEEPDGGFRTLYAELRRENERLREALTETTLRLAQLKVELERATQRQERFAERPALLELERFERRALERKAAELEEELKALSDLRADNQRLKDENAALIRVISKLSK
UniProt P51817: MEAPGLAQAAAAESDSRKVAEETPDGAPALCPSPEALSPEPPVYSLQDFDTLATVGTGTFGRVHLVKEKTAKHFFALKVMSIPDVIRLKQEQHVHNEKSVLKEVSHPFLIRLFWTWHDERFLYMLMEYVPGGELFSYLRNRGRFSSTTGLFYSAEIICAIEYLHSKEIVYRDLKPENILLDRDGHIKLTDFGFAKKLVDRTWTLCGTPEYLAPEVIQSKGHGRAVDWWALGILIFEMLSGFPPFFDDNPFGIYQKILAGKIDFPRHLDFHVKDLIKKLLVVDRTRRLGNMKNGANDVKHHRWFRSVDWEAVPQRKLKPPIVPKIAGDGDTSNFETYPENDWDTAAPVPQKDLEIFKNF
UniProt O75688: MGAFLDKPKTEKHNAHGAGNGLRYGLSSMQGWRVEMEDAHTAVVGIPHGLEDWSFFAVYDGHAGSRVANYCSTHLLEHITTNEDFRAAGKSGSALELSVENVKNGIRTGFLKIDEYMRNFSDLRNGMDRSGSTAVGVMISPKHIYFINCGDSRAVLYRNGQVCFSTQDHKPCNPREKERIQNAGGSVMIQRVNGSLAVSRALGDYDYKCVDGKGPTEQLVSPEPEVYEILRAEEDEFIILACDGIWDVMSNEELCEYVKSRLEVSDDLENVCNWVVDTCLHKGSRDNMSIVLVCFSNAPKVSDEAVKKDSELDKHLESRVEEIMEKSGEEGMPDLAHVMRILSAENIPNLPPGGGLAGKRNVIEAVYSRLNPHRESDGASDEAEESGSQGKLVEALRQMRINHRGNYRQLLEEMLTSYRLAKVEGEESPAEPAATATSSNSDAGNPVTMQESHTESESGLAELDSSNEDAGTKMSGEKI

[1] = compound: CC(=O)c1cnc2ccc(-c3cc(Cl)c(O)c(Cl)c3)nc2c1N[C@H]1CC[C@H](CN(C)C)CC1
Outline: as §1

ralimetinib = compound: CC(C)(C)Cn1c(N)nc2ccc(-c3[nH]c(C(C)(C)C)nc3-c3ccc(F)cc3)nc21 [ralimetinib]
Outline: as §1

[2] = compound: CC(C)(O)CC(=O)NCCn1ccc2ncnc(Nc3ccc(Oc4cccc(C(F)(F)F)c4)c(Cl)c3)c21
Outline: as §1

[3] = compound: CC(C)C1=C2N=C(C=C(N2N=C1)NCC3=CC=CC=C3)NCCCCCCN
Outline: as §1

[4] = compound: CC1=C(C(CC(=O)N1)C2=CC=C(C=C2)C(F)(F)F)C(=O)NC3=C(C=C4C(=C3)C=NN4)F
Outline: as §1

[5] = compound: CC1=C(C2=C(C=C1)C(=O)C3=CC=CC=C3N2CCCN)C
Outline: as §1

[6] = compound: CC1=C(C=C(C=C1)NC(=O)C2=CC(=CC=C2)C(C)(C)C#N)NC3=CC4=C(C=C3)N=CN(C4=O)C
Outline: as §1

[7] = compound: CC1=C(C=C(C=C1)NC(=O)C2=CC(=CC=C2)N(C)C)NC(=O)C3=CC=C(C=C3)O
Outline: as §1

[8] = compound: CC1=CC=C(C=C1)SC2=C3C=C(SC3=CN=C2)C(=O)N
Outline: as §1

Measured: log2 fold change

PRPF38B (UniProt Q5VTL8)
inactive: ibrutinib -0.011 | [1] 0.001 | ralimetinib 0.041 | [2] -0.017 | [3] 0.027 | [4] -0.016 | [5] -0.006 | [6] -0.002 | [7] -0.006 | [8] 0.017

PPP1R2 (UniProt P41236)
inactive: ibrutinib -0.005 | [1] 0.009 | ralimetinib -0.014 | [2] 0.008 | [3] -0.025 | [4] 0.014 | [5] -0.009 | [6] 0.016 | [7] -0.045 | [8] -0.026

PPP1R13L (UniProt Q8WUF5)
inactive: ibrutinib 0.109 | [1] -0.036 | ralimetinib 0.083 | [2] -0.26 | [3] -0.015 | [4] -0.084 | [6] -0.003 | [7] 0.035 | [8] -0.104

PPME1 isoform 4 (UniProt Q9Y570)
inactive: ibrutinib 0.042 | [1] 0.009 | ralimetinib 0.008 | [2] 0.018 | [3] -0.001 | [4] -0.021 | [5] -0.004 | [6] -0.011 | [7] -0.023 | [8] 0.012

PPIL3 (UniProt Q9H2H8)
inactive: ibrutinib 0.044 | [1] 0.029 | ralimetinib -0.023 | [2] -0.028 | [3] 0.022 | [4] 0.001 | [5] 0.003 | [6] 0.011 | [7] 0.009 | [8] 0.005

PPP1R35 (UniProt Q8TAP8)
inactive: ibrutinib 0.048 | [1] -0.033 | ralimetinib -0.08 | [2] -0.102 | [3] -0.015 | [4] 0.018 | [5] 0.018 | [6] 0.004 | [7] 0.102 | [8] -0.02

PPP3CB (UniProt P16298)
inactive: ibrutinib -0.02 | [1] -0.022 | ralimetinib 0.072 | [2] -0.026 | [3] -0.032 | [4] 0.034 | [5] -0.024 | [6] 0.022 | [7] -0.009 | [8] 0.016

PPP1R18 (UniProt Q6NYC8)
inactive: ibrutinib 0.018 | [1] 0.018 | ralimetinib 0.008 | [2] -0.001 | [3] -0.023 | [4] 0.019 | [5] -0.001 | [6] 0.019 | [7] -0.007 | [8] -0.031

PRKD3 (UniProt O94806)
inactive: ibrutinib -0.112 | [1] 0.054 | ralimetinib -0.164 | [2] -0.052 | [3] 0.03 | [4] 0.039 | [6] -0.068 | [7] -0.022 | [8] -0.077

PRKAA1 isoform 2 (UniProt Q13131)
inactive: ibrutinib 0.033 | [1] 0.021 | ralimetinib 0.006 | [2] -0.004 | [3] -0.061 | [4] 0.006 | [5] 0.019 | [6] -0.018 | [7] 0.016 | [8] -0.034

PPP1R9B (UniProt Q96SB3)
inactive: ibrutinib 0.05 | [1] -0.02 | ralimetinib 0.025 | [2] -0.016 | [3] -0.015 | [4] -0.03 | [5] -0.01 | [6] -0.029 | [7] 0.015 | [8] -0.01

PPP2R5C isoform 5 (UniProt Q13362)
inactive: ibrutinib -0.002 | [1] 0.012 | ralimetinib -0.021 | [2] -0.036 | [3] -0.037 | [4] -0.038 | [5] 0.02 | [6] 0.002 | [7] 0.014 | [8] 0.037

PPP1R8 (UniProt Q12972)
inactive: ibrutinib -0.029 | [1] -0.026 | ralimetinib -0.039 | [2] -0.031 | [3] 0.011 | [4] -0.011 | [5] -0.034 | [6] 0.002 | [7] -0.036 | [8] -0.028

PPP2R5B (UniProt Q15173)
inactive: ibrutinib 0.042 | [1] 0.033 | ralimetinib 0 | [2] -0.046 | [3] -0.055 | [5] 0.009 | [6] 0.026 | [7] 0.08 | [8] -0.053

PRELID1 (UniProt Q9Y255)
inactive: ibrutinib -0.012 | ralimetinib 0.103 | [2] -0.103 | [4] 0.005 | [6] -0.061 | [7] -0.074

PPP6R3 isoform 6 (UniProt Q5H9R7)
inactive: ralimetinib -0.07 | [2] -0.108 | [7] 0.092

PRPF40A isoform 3 (UniProt O75400)
inactive: [1] -0.028 | ralimetinib 0.03 | [2] -0.097 | [3] 0.014 | [7] 0.007 | [8] 0.092

PPP1R14C (UniProt Q8TAE6)
inactive: ibrutinib 0.067 | [1] 0.007 | ralimetinib 0.057 | [2] 0.042 | [4] -0.028 | [5] -0.097 | [7] -0.123 | [8] 0.068

PRDM15 (UniProt P57071)
inactive: ralimetinib 0.011 | [2] -0.246 | [5] 0.18 | [7] 0.008

PPP1R16A (UniProt Q96I34)
inactive: ibrutinib 0 | [1] -0.005 | ralimetinib 0.089 | [2] -0.147 | [3] -0.185 | [7] 0.147 | [8] -0.131

PRG2 (UniProt P13727)
inactive: [1] 0.068 | [5] -0.099 | [6] 0.161 | [8] 0.05

Two records picked at random from those above, as already listed:
PRKD3 (UniProt O94806)
inactive: ibrutinib -0.112 | [1] 0.054 | ralimetinib -0.164 | [2] -0.052 | [3] 0.03 | [4] 0.039 | [6] -0.068 | [7] -0.022 | [8] -0.077

PPP1R9B (UniProt Q96SB3)
inactive: ibrutinib 0.05 | [1] -0.02 | ralimetinib 0.025 | [2] -0.016 | [3] -0.015 | [4] -0.03 | [5] -0.01 | [6] -0.029 | [7] 0.015 | [8] -0.01

(further entries)

PPP1R3E (UniProt Q9H7J1)
inactive: [3] -0.005

PPP1R7 isoform 2 (UniProt Q15435)
inactive: [1] 0.225 | ralimetinib 0.057 | [2] 0.038 | [7] 0.056 | [8] -0.1

PREP (UniProt H0Y5Y0)
inactive: [1] -0.051 | [8] 0.029

PRMT2 (UniProt P55345)
inactive: ibrutinib -0.034 | [1] 0.103 | ralimetinib 0.011 | [2] 0 | [5] -0.152 | [7] -0.154 | [8] 0.017

PPP1R7 (UniProt C9JD73)
inactive: [1] 0.066 | [8] 0.013

PRG4 (UniProt Q92954)
inactive: ibrutinib 0.267 | [1] -0.002 | ralimetinib 0.037 | [2] -0.109 | [4] -0.091 | [5] -0.029 | [6] -0.027 | [7] 0.035 | [8] 0.034

PPP2CB (UniProt E5RHC1)
inactive: ibrutinib 0.118 | [1] 0.255 | ralimetinib -0.024 | [2] 0.17 | [4] 0.024 | [5] -0.301 | [6] -0.119 | [7] -0.084 | [8] 0.257

PPP1R14A, A0A0B4J2A3
inactive: [1] -0.043 | [3] -0.254 | [8] 0.015

PPME1 (UniProt Q9Y570)
inactive: ibrutinib -0.038 | [1] -0.072 | [3] -0.238 | [5] -0.018 | [8] -0.077

PRIMPOL (UniProt Q96LW4)
inactive: ibrutinib 0.062 | ralimetinib 0.055 | [2] -0.027 | [3] 0.048 | [4] -0.055 | [5] -0.034 | [6] 0.078 | [7] 0.049

PPT2, A0A140T9Y1
inactive: [4] -0.142

PPM1J (UniProt Q5JR12)
inactive: [1] -0.005 | [8] -0.03

PRDM10 isoform 6 (UniProt Q9NQV6)
inactive: ibrutinib 0.03 | [1] 0.011 | ralimetinib 0.043 | [2] -0.196 | [3] 0.061 | [7] 0.058 | [8] -0.114

PROSER3, A0A2R8Y8D9
inactive: [5] -0.016 | [6] -0.01

PPP2CA (UniProt E7ESG8)
inactive: [4] 0.239

PPP2R5C isoform 2 (UniProt Q13362)
inactive: ibrutinib -0.145 | ralimetinib -0.016 | [2] -0.02 | [3] 0.02 | [4] -0.012 | [5] 0 | [6] -0.155 | [7] 0.08

PPP1R12C isoform 3 (UniProt Q9BZL4)
inactive: ibrutinib 0.1 | ralimetinib 0.019 | [2] -0.066 | [6] 0.009 | [7] 0.034

PRDM2 (UniProt Q13029)
inactive: ibrutinib 0.038 | [1] 0.051 | ralimetinib 0.013 | [2] -0.052 | [3] 0.078 | [5] -0.272 | [7] 0.028 | [8] 0.074

PPL (UniProt O60437)
inactive: ibrutinib 0.028 | [4] 0.02 | [5] 0.368 | [6] 0.279

PPP2R3B (UniProt Q9Y5P8)
inactive: ibrutinib -0.323 | [1] -0.014 | [6] 0.049 | [8] 0.063

PRKX (UniProt P51817)
inactive: ibrutinib 0.109 | [1] 0.053 | ralimetinib 0.057 | [2] -0.044 | [4] 0.077 | [5] -0.039 | [7] 0.061 | [8] 0.059

PPM1B isoform 2 (UniProt O75688)
inactive: ibrutinib -0.092 | [1] 0.075 | ralimetinib 0.064 | [2] 0.009 | [4] 0.061 | [5] 0.024 | [7] -0.15 | [8] -0.191

PPP6R3 isoform 2 (UniProt Q5H9R7)
inactive: ralimetinib 0.043 | [2] -0.01 | [3] -0.032 | [4] 0.207 | [7] 0.081

PPTC7 (UniProt Q8NI37)
inactive: ralimetinib -0.067 | [2] 0.25 | [5] 0.006 | [7] -0.002

PROSER3 (UniProt Q2NL68)
inactive: [3] 0.011 | [6] -0.205

PRPF40B (UniProt Q6NWY9)
inactive: [6] -0.081

PRICKLE3 (UniProt O43900)
inactive: ibrutinib 0.174 | ralimetinib 0.068 | [2] 0.079 | [7] 0.149

From the supplement of paper PMC10849652
